## Drug screen on melanoma cell lines: apoptosis marker

Source: doi:10.1371/journal.pone.0140310, primary screening data, rounded.

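Human melanoma cell lines in 1,536-well plates were treated with two drugs together for 72 h, then fixed, stained and imaged. The read-out is the fraction of cleaved-PARP-positive nuclei, in % of that fraction in the DMSO control; 200 means twice the control level of this apoptosis marker. Concentrations were fixed for each drug; these are the higher of two levels. No replicate spread is given; individual values may be noisy. Basal and induced levels differ widely between cell lines.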 This is part of the screen, not chosen by result.

Drugs:
NVP-TAE684, 400 nM: COc1cc(N2CCC(N3CCN(C)CC3)CC2)ccc1Nc1ncc(Cl)c(Nc2ccccc2S(=O)(=O)C(C)C)n1
BI-78D3, 1000 nM: O=c1[nH]nc(Sc2ncc([N+](=O)[O-])s2)n1-c1ccc2c(c1)OCCO2
ENMD-2076, 200 nM: Cc1cc(Nc2cc(N3CCN(C)CC3)nc(/C=C/c3ccccc3)n2)n[nH]1
RKI-983, 2000 nM: C[C@@H](N)c1ccc(C(=O)Nc2ccnc3[nH]ccc23)cc1
A-769662, 10000 nM: N#Cc1c(O)c2c(-c3ccc(-c4ccccc4O)cc3)csc2[nH]c1=O
nutlin-3, 500 nM: COc1ccc(C2=N[C@@H](c3ccc(Cl)cc3)[C@@H](c3ccc(Cl)cc3)N2C(=O)N2CCNC(=O)C2)c(OC(C)C)c1
OSU-03012, 5000 nM: NCC(=O)Nc1ccc(-n2nc(C(F)(F)F)cc2-c2ccc3c(ccc4ccccc43)c2)cc1
docetaxel, 0.5 nM: CC(=O)O[C@@]12CO[C@@H]1C[C@H](O)[C@@]1(C)C(=O)[C@H](O)C3=C(C)[C@@H](OC(=O)[C@H](O)[C@@H](NC(=O)OC(C)(C)C)c4ccccc4)C[C@@](O)([C@@H](OC(=O)c4ccccc4)[C@H]21)C3(C)C
decitabine, 500 nM: Nc1ncn([C@H]2C[C@H](O)[C@@H](CO)O2)c(=O)n1
lestaurtinib, 20 nM: C[C@]12O[C@H](C[C@]1(O)CO)n1c3ccccc3c3c4c(c5c6ccccc6n2c5c31)CNC4=O

With A-769662 + docetaxel the screen read UACC-257: 74.7; RVH-421: 269; A101D: 294; WM451Lu: 1270; WM3526: 820; SK-MEL-5: 638.
With lestaurtinib + decitabine the screen read UACC-257: 48.2; RVH-421: 74.5; A101D: 197; WM451Lu: 170; WM3526: 180; SK-MEL-5: 984.
With OSU-03012 + docetaxel the screen read UACC-257: 52.1; RVH-421: 132; A101D: 241; WM451Lu: 637; WM3526: 1580; SK-MEL-5: 641.
With NVP-TAE684 + decitabine the screen read UACC-257: 63.3; RVH-421: 162; A101D: 122; WM451Lu: 151; WM3526: 183; SK-MEL-5: 193.
With RKI-983 + lestaurtinib the screen read UACC-257: 83.5; RVH-421: 206; A101D: 124; WM451Lu: 104; WM3526: 170; SK-MEL-5: 295.
With BI-78D3 + OSU-03012 the screen read UACC-257: 163; RVH-421: 92.2; A101D: 81.7; WM451Lu: 88.0; WM3526: 451; SK-MEL-5: 484.
With RKI-983 + BI-78D3 the screen read UACC-257: 145; RVH-421: 102; A101D: 105; WM451Lu: 188; WM3526: 131; SK-MEL-5: 121.
With NVP-TAE684 + lestaurtinib the screen read UACC-257: 70.5; RVH-421: 66.0; A101D: 128; WM451Lu: 195; WM3526: 276; SK-MEL-5: 111.
With A-769662 + OSU-03012 the screen read UACC-257: 55.6; RVH-421: 131; A101D: 415; WM451Lu: 81.8; WM3526: 578; SK-MEL-5: 175.
With decitabine + ENMD-2076 the screen read UACC-257: 97.6; RVH-421: 159; A101D: 94.7; WM451Lu: 103; WM3526: 121; SK-MEL-5: 111.
With A-769662 + NVP-TAE684 the screen read UACC-257: 18.5; RVH-421: 50.5; A101D: 117; WM451Lu: 70.6; WM3526: 83.0; SK-MEL-5: 175.
With docetaxel + RKI-983 the screen read UACC-257: 431; RVH-421: 415; A101D: 140; WM451Lu: 572; WM3526: 1740; SK-MEL-5: 587.
With BI-78D3 + ENMD-2076 the screen read UACC-257: 27.2; RVH-421: 187; A101D: 191; WM451Lu: 46.7; WM3526: 118; SK-MEL-5: 120.
With NVP-TAE684 + docetaxel the screen read UACC-257: 107; RVH-421: 214; A101D: 290; WM451Lu: 2380; WM3526: 1310; SK-MEL-5: 511.
With ENMD-2076 + RKI-983 the screen read UACC-257: 179; RVH-421: 834; A101D: 64.2; WM451Lu: 92.4; WM3526: 113; SK-MEL-5: 210.
With A-769662 + lestaurtinib the screen read UACC-257: 23.5; RVH-421: 172; A101D: 95.3; WM451Lu: 140; WM3526: 228; SK-MEL-5: 444.
With A-769662 + ENMD-2076 the screen read UACC-257: 35.4; RVH-421: 69.9; A101D: 184; WM451Lu: 61.8; WM3526: 112; SK-MEL-5: 19.8.
With docetaxel + nutlin-3 the screen read UACC-257: 73.4; RVH-421: 225; A101D: 152; WM451Lu: 406; WM3526: 1200; SK-MEL-5: 1930.
With A-769662 + RKI-983 the screen read UACC-257: 208; RVH-421: 319; A101D: 61.9; WM451Lu: 83.2; WM3526: 72.0; SK-MEL-5: 376.
With BI-78D3 + A-769662 the screen read UACC-257: 137; RVH-421: 164; A101D: 74.5; WM451Lu: 28.1; WM3526: 119; SK-MEL-5: 111.
With BI-78D3 + decitabine the screen read UACC-257: 91.8; RVH-421: 144; A101D: 89.6; WM451Lu: 43.7; WM3526: 107; SK-MEL-5: 141.
With NVP-TAE684 + nutlin-3 the screen read UACC-257: 44.0; RVH-421: 64.4; A101D: 177; WM451Lu: 145; WM3526: 114; SK-MEL-5: 237.
With RKI-983 + OSU-03012 the screen read UACC-257: 190; RVH-421: 118; A101D: 109; WM451Lu: 178; WM3526: 754; SK-MEL-5: 248.
With nutlin-3 + decitabine the screen read UACC-257: 132; RVH-421: 193; A101D: 88.8; WM451Lu: 85.0; WM3526: 168; SK-MEL-5: 208.
With NVP-TAE684 + RKI-983 the screen read UACC-257: 142; RVH-421: 104; A101D: 50.6; WM451Lu: 82.5; WM3526: 140; SK-MEL-5: 171.
With lestaurtinib + nutlin-3 the screen read UACC-257: 53.9; RVH-421: 88.8; A101D: 245; WM451Lu: 84.4; WM3526: 236; SK-MEL-5: 99.4.
With ENMD-2076 + nutlin-3 the screen read UACC-257: 28.4; RVH-421: 207; A101D: 96.6; WM451Lu: 31.1; WM3526: 119; SK-MEL-5: 99.6.
With nutlin-3 + A-769662 the screen read UACC-257: 57.7; RVH-421: 182; A101D: 148; WM451Lu: 28.3; WM3526: 96.3; SK-MEL-5: 207.
With RKI-983 + nutlin-3 the screen read UACC-257: 213; RVH-421: 138; A101D: 103; WM451Lu: 93.1; WM3526: 77.2; SK-MEL-5: 185.
With NVP-TAE684 + ENMD-2076 the screen read UACC-257: 67.5; RVH-421: 34.3; A101D: 77.1; WM451Lu: 130; WM3526: 95.9; SK-MEL-5: 124.
With OSU-03012 + ENMD-2076 the screen read UACC-257: 36.5; RVH-421: 158; A101D: 568; WM451Lu: 182; WM3526: 236; SK-MEL-5: 321.
With decitabine + RKI-983 the screen read UACC-257: 174; RVH-421: 96.4; A101D: 101; WM451Lu: 97.5; WM3526: 90.1; SK-MEL-5: 1040.
With lestaurtinib + OSU-03012 the screen read UACC-257: 45.0; RVH-421: 116; A101D: 52.2; WM451Lu: 36.1; WM3526: 195; SK-MEL-5: 243.
With NVP-TAE684 + BI-78D3 the screen read UACC-257: 55.8; RVH-421: 189; A101D: 131; WM451Lu: 121; WM3526: 159; SK-MEL-5: 83.0.
With decitabine + A-769662 the screen read UACC-257: 50.5; RVH-421: 32.4; A101D: 141; WM451Lu: 91.0; WM3526: 28.9; SK-MEL-5: 201.
With lestaurtinib + docetaxel the screen read UACC-257: 125; RVH-421: 216; A101D: 69.7; WM451Lu: 388; WM3526: 2020; SK-MEL-5: 1790.
With BI-78D3 + docetaxel the screen read UACC-257: 146; RVH-421: 240; A101D: 172; WM451Lu: 475; WM3526: 1440; SK-MEL-5: 717.

For reference, 3 entries once more:

{"pair": "A-769662 + NVP-TAE684", "UACC-257": 18.5, "RVH-421": 50.5, "A101D": 117, "WM451Lu": 70.6, "WM3526": 83.0, "SK-MEL-5": 175}
{"pair": "NVP-TAE684 + RKI-983", "UACC-257": 142, "RVH-421": 104, "A101D": 50.6, "WM451Lu": 82.5, "WM3526": 140, "SK-MEL-5": 171}
{"pair": "BI-78D3 + docetaxel", "UACC-257": 146, "RVH-421": 240, "A101D": 172, "WM451Lu": 475, "WM3526": 1440, "SK-MEL-5": 717}